Laboratory results: PubChem BioAssay AID1159598 (NIAID, 2016)

Purpose: 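Knock-downs that alter flagellin-driven TNF reporter signal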
Cells: human THP-1 B5 reporter cells made macrophage-like with PMA
Knock-down reagent: single siRNA against human genes
Timing: reporter read 48 to 72 hours after siRNA transfection
Conditions: flagellin stimulation for 4 hours, dose not given
Measured: 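Firefly to renilla ratio from a TNF promoter reporter after 4 h flagellin, as robust z against negative controls averaged across replicates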
Reading the numbers: TNF reporter z-score: higher = stronger TNF promoter activity than controls
Call rule: 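a row is called active when its replicate-mean z lies at or beyond 1.5 in either direction, so raised and lowered signal both count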
Meaning of the calls: active = reporter shifted beyond 1.5 z, up or down; inactive = reporter within 1.5 z of controls
This is one part, drawn at random, of 756 reagents. 142 of them (19%) were called active. 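Active includes both higher and lower reporter signal; each gene has six separate siRNAs, and no gene-level summary is deposited.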 Unmarked entries are inactive. Reagents against one gene are numbered here. Not given: the amount of reagent.

TNF reporter z-score, by gene and reagent
TRAF6: #1 -4.87 (active); #2 -2.83 (active); #3 -5.07 (active); #4 -2.41 (active); #5 -2.67 (active); #6 -3.09 (active)
TICAM2: #1 -0.202; #2 0.415; #3 -0.435; #4 0.545; #5 -1.17; #6 -1.05
MAP2K3: #1 -0.373; #2 -0.672; #3 -1.71 (active); #4 -2.08 (active); #5 -0.768; #6 -3.8 (active)
LY86: #1 0.158; #2 -0.0775; #3 0.00538; #4 -3.09 (active); #5 -0.442; #6 -0.392
IL6: #1 0.651; #2 -1.1; #3 -1.82 (active); #4 0.0203; #5 -0.329; #6 -0.718
STAT1: #1 -0.58; #2 -0.366; #3 -0.604; #4 -0.553; #5 1.26; #6 -0.773
FADD: #1 1.14; #2 -0.209; #3 -0.113; #4 -0.747; #5 -0.0569; #6 -1.83 (active)
IFNAR2: #1 -0.317; #2 -1.41; #3 -1.81 (active); #4 -0.0904; #5 -0.507; #6 -0.773
TAB3: #1 -0.147; #2 -1.22; #3 -0.432; #4 -0.619; #5 0.22; #6 0.177
CHUK: #1 -0.231; #2 -1.25; #3 -1.13; #4 -0.436; #5 -1.06; #6 0.118
TLR7: #1 -0.547; #2 0.885; #3 -0.294; #4 -0.438; #5 0.0477; #6 -0.247
IRAK3: #1 -0.691; #2 -0.623; #3 -0.273; #4 0.2; #5 -0.71; #6 0.103
FOS: #1 -0.00285; #2 -0.17; #3 1.64 (active); #4 -0.0294; #5 0.815; #6 -0.135
MAPK14: #1 -1.53 (active); #2 -1.28; #3 -1.18; #4 -1.86 (active); #5 -0.74; #6 -1.24
CXCL9: #1 -2.57 (active); #2 -0.121; #3 -0.551; #4 -2.45 (active); #5 0.185; #6 1.28
TLR9: #1 -1.42; #2 0.389; #3 -1.6 (active); #4 0.316; #5 -0.079; #6 0.945
AKT2: #1 -2.44 (active); #2 -0.529; #3 -0.15; #4 -0.14; #5 1.13; #6 -0.464
MAPK8: #1 0.326; #2 -1.3; #3 0.027; #4 0.0732; #5 -0.379; #6 0.00826
IL1B: #1 -1.1; #2 -0.653; #3 -0.963; #4 -1.48; #5 -1.43; #6 -1.63 (active)
